For four compounds, Slope results are on record in patent US20080103205A1, “Pesticidal compositions and methods of use” (priority 2006, published 2008).

Each structure is given as a SMILES string.

The subject of the data set is Drosophila melanogaster. Kind of data set: Toxicity against adult Drosophila melanogaster, sugar solution feeding. The class given is in vivo. As to the method: Toxicity tests were conducted using mixed sex adults of D. melanogaster maintained on artificial diet in the department of entomology, Virginia Tech. Test concentrations of 6.25, 12.5, 25, 50 or 100 ppm were prepared in 0.2% dimethyl sulfoxide (DMSO) for DIDS, 9-AC, NPPB, and IAA-94. The above final concentrations were obtained after mixing them in 10 ml of 10% sugar solution. Similar preparations with 0.2% DMSO alone served as controls. One end of a cotton wick was dipped in 0.5 ml of sugar solution and placed on the glass vial containing 10 adult flies of mixed sex. Each concentration of test chemical had 5 replications. Mortality counts of flies were taken 24, 48, and 72 hrs after treatment. Insects without movement upon probing were considered dead. LC50 values and confidence intervals for each chemical were estimated using POLO PLUS software program. The data provided in Tables 3-A and 3-B below confirm that AT blockers are toxic to insects in acute exposures.

Turning to `O=C(O)c1c2ccccc2cc2ccccc12` [9-AC, anthracene-9-carboxylic acid], the Slope runs as follows: (48 hr) 1.74 ± 0.42; (72 hr) 1.91 ± 0.47.

With `O=C(O)c1cc([N+](=O)[O-])ccc1NCCCc1ccccc1` [NPPB, 5-Nitro-2-(3-phenylpropylamino)benzoic acid], the Slope is, setting by setting: (48 hr) 1.38 ± 0.49; (72 hr) 1.77 ± 0.37.

`O=S(=O)(O)c1cc(N=C=S)ccc1/C=C/c1ccc(N=C=S)cc1S(=O)(=O)O` [DIDS, trans-4,4′-diisothiocyanatostilbene-2,2′-disulfonic acid, reference compound] came in with a Slope (48 hr) of 1.67 ± 0.37 and a Slope (72 hr) of 1.88 ± 0.41.

Regarding `CC1(C2CCCC2)Cc2cc(OCC(=O)O)c(Cl)c(Cl)c2C1=O` (single isomer, unassigned; (+)) [IAA-94, (+)(2-cyclopentyl-6,7-dichloro-2-methyl-1-oxo-5-indanyloxy) acetic acid], the Slope runs as follows: (48 hr) 1.65 ± 0.42; (72 hr) 1.74 ± 0.41.
